US20160130324A1

Target: biotin-C1s
Assay: functional ELISA: complex with biotin-C1s captured on streptavidin plate, detected with anti-C1-INH-HRP; plasma-derived C1-INH as positive control and reference

B1: plasma-derived C1-INH (protein)
chain: NPNATSSSSQDPESLQDRGEGKVATTVISKMLFVEPILEVSSLPTTNSTTNSATKITANTTDEPTTQPTTEPTTQPTIQPTQPTTQLPTDSPTQPTTGSFCPGPVTLCSDLESHSTEAVLGDALVDFSLKLYHAFSAMKKVETNMAFSPFSIASLLTQVLLGAGENTKTNLESILSYPKDFTCVHQALKGFTTKGVTSVSQIFHSPDLAIRDTFVNASRTLYSSSPRVLSNNSDANLELINTWVAKNTNNKISRLLDSLPSDTRLVLLNAIYLSAKWKTTFDPKKTRMEPFHFKNSVIKVPMMNSKKYPVAHFIDQTLKAKVGQLQLSHNLSLVILVPQNLKHRLEDMEQALSPSVFKAIMEKLEMSKFQPTLLTLPRIKVTTSQDMLSIMEKLEFFDFSYDLNLCGLTEDPDLQVSAMQHQTVLELTETGVEAAAASAISVARTLLVFEVQQPFLFVLWDQQHKFPVFMGRVYDPRA
In the case of B1, the binding is reported as “binds”.

These are yes or no findings as the source states them, for the method shown. Binding can be weak; no strength is given.
